Test system: ApoE−/− mice
Test: Plasma malondialdehyde (MDA) levels of ApoE−/− mice fed high fat diet
Assay type: in vivo
Settings: atorvastatin 50 mg/kg/d

Structure (SMILES): CC(C)c1c(C(=O)Nc2ccccc2)c(-c2ccccc2)c(-c2ccc(F)cc2)n1CC[C@@H](O)C[C@@H](O)CC(=O)O [atorvastatin]
- increase in plasma MDA levels compared with group HG (since second week (W2) until end of administration, total saponins 300 mg/kg/d): significantly inhibited
- plasma MDA level (sixth week (W6) of administration): 16.5 nmol/L
- plasma MDA level at W6 relative to before administration (sixth week (W6)): ~1.5 times
